Assay: in vivo
Conditions: mouse, blood, po, 100 mg/kg

With `CC1=C(C(=O)O)N2C(=O)[C@@H](NC(=O)[C@H](N)c3ccccc3)[C@H]2SC1` [Cephalexin Monohydrate, reference compound] the concentration at 1 h was 26900 ng/mL, the concentration at 2 h was 8500 ng/mL and the concentration at 3.5 h was < 4600 ng/mL.
